Experimental data: PMC10783636, “Chlorophyll biosynthesis under the control of arginine metabolism” (Cell Reports, 2023)
These are yes or no findings as the source states them, for the method shown. In cells and extracts the contact can be indirect. A result given as binding can be weak or reduced; the word gives no strength. Where a sequence is shown, tags or fusion partners need not be part of it.

Biological target: T1, 3×FLAG-tagged ArgD (N-acetylornithine aminotransferase) of Synechocystis sp. PCC 6803 (Synechocystis sp. PCC 6803) (UniProt P73133)
T1 sequence: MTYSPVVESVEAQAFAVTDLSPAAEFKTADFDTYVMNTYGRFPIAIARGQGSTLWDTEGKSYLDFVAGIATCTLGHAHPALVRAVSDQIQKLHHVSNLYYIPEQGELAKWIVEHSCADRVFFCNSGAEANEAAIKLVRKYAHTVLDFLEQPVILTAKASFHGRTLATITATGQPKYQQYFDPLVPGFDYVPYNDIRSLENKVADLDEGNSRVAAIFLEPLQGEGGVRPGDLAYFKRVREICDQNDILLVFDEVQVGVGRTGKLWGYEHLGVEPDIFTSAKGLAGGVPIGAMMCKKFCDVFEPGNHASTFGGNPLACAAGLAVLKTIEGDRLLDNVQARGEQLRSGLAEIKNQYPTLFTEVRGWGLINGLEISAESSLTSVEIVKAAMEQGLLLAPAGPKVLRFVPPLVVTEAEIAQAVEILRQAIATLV
Test: co-IP; f.ArgD or f.AstC purified from the soluble fraction of Synechocystis strains (ΔargD or ΔcphB background; cells with nitrate, without or with 1 mM Orn for 24 h) on anti-FLAG M2 gel, eluted with 3xFLAG peptide; SDS-PAGE, stained, blotted and probed with anti-Gun4 and anti-CphB

Substance: Gun4 protein of Synechocystis sp. PCC 6803 (native)
- binding: binds
